No constants are given. Whether binding was seen depends on the method and setting. In cells and extracts the contact can be indirect. Binding calls can cover weak binding; strength is not graded here. Tags and fused reporters may be left off the sequences shown.
Key:
[1] = biological target: GFP-tagged SsSSVP1^∆SP (SsSSVP1^∆SP-GFP) (Sclerotinia sclerotiorum); experiment: co-IP; co-expression in N. benthamiana leaves; RIPA lysis buffer; IP with anti-GFP monoclonal antibody and protein G plus-agarose, 8 h at 4°C; immunoblot with anti-FLAG
[2] = biological target: SsSSVP1^∆SP-nYFP (Sclerotinia sclerotiorum); experiment: split reporter; BiFC with nYFP and cYFP fusions transiently co-expressed in N. benthamiana leaves; confocal microscopy 3 days after agroinfiltration

| Binder | binding [1] | binding [2] |
| --- | --- | --- |
| 3×FLAG-tagged QCR8 (QCR8-3×FLAG) (protein, UniProt Q9SG91 1-72) MGKQPVKLKAVVYALSPFQQKIMTGLWKDLPEKIHHKVSENWISATLLVTPVVGTYWYAQYFKEQEKLEHRF | binds | – |
| QCR8-cYFP (protein, UniProt Q9SG91 1-72) MGKQPVKLKAVVYALSPFQQKIMTGLWKDLPEKIHHKVSENWISATLLVTPVVGTYWYAQYFKEQEKLEHRF | – | binds |

From publication PMC4735494
